This is one part of the list. These are raw signals, not scaled to a control.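 Primary screen: polymyxin B was added at a level permeabilizing Salmonella outer membranes while sparing inner membranes. DMSO wells, both with and without polymyxin B, established maximum growth. Plate-to-plate variation meant each plate was ranked on its own, and the lowest-OD600 compounds were selected as hits.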
Tested on: Salmonella enterica serovar Typhimurium SL1344
Assay: bacterial growth OD600 after 18 h with compound and polymyxin B; higher = more bacterial growth (less inhibition)
Details: 50 µM, Mueller-Hinton broth

SMILES | bacterial growth OD600 (polymyxin B 1 µg/mL) | bacterial growth OD600 (polymyxin B 0.75 µg/mL)
COc1cccc(-c2ccc(NC(=O)C3CCCN(C(=O)c4c[nH]nc4C)C3)cc2)c1 (configuration not stated) | 0.942 | 
CC(=O)N1CCC(NC(C)c2cnn(-c3ccc(F)cc3F)c2C)CC1 (configuration not stated) | 1.18 | 
COC(=O)C1CCCCN1Cc1nc(-c2ccc(C)cc2)oc1C (configuration not stated) |  | 0.96
c1ccc(CCC2CN(Cc3ccc4nonc4c3)CCO2)cc1 (configuration not stated) |  | 0.004
COc1cccc(CCC2CCCN(C(=O)c3ccoc3C)C2)c1 (configuration not stated) |  | 0.092
COc1ccc(F)c(-c2nc(CN(C)Cc3cccc4ncccc34)c(C)o2)c1 | 0.671 | 
COc1ccccc1CN1CCN(Cc2ccc(OC)c(C)c2C)C(CCO)C1 (configuration not stated) | 0.828 | 
CCN(CCn1cccn1)C(=O)c1ccc(OC2CCN(C(=O)CCOC)CC2)cc1 | 0.771 | 
Cc1ccsc1C(=O)NCC1Cc2cc(F)cc(-c3ccccn3)c2O1 (configuration not stated) |  | 0.564
COc1ccc(NC(=O)CCC2CCCN(C(=O)C3=NN(C)C(=O)CC3)C2)cc1Cl (configuration not stated) | 1.23 | 
CC(C)=CC(=O)N1CCCC(N2CCN(c3ccccc3C)CC2)C1 (configuration not stated) | 0.857 | 
COc1cc(CN(C(=O)c2ccccc2F)[C@H]2CCCCNC2=O)ccc1OCCc1scnc1C |  | 0.97
O=C(c1cn(CC2COc3ccccc3O2)nn1)N1CCC2(C=Cc3ccccc32)CC1 (configuration not stated) | 0.008 | 
CSCC(=O)N1CCC2(CCCN(Cc3ccccc3F)C2=O)C1 (configuration not stated) | 0.976 | 
COc1ccc(C(=O)NC2CC2)cc1OC1CCN(CC2CC2)CC1 | 1.11 | 
COCC(=O)Nc1cc(C(=O)N2CCC(c3ccccc3F)C2)cc2nc(-c3cccnc3)n(C)c12 (configuration not stated) |  | 0.797

SMILES | bacterial growth OD600 (polymyxin B 1 µg/mL) | bacterial growth OD600 (polymyxin B 0.75 µg/mL)
CCCOC1CCCN(C(=O)c2cc(Cn3nc(C)cc3C)[nH]n2)C1 (configuration not stated) | 1.15 | 
CCOC(=O)N1CCN(C(=O)c2ccc(N3CCC(NCCN4CCCCC4)CC3)cc2)CC1 |  | 0.829
CS(=O)(=O)NCc1cccnc1N1CCCCCCC1 | 0.928 | 
Cn1nc(C(=O)N2CCCC(CCc3ccccc3F)C2)ccc1=O (configuration not stated) |  | 0.859
OCCOc1ccc(CN2CCOc3ccc(C(O)Cc4ccccc4)cc3C2)cc1 (configuration not stated) |  | 0.721
COc1ccccc1CCC(=O)Nc1cnn(CC(=O)N2CCC(c3ccccc3Cl)C2)c1 (configuration not stated) |  | 0.904
C=CCC(=O)N1CCC(Oc2ccc(C(=O)NCCc3ccccc3)cc2)CC1 | 0.906 | 
Cc1cc(C)n(CCC(=O)NC2CCCN(c3ncccn3)C2)n1 (configuration not stated) | 1.05 | 
Cc1c(-c2ccc(F)cc2)[nH]c2ccc(CNC(=O)C(C)(C)O)cc12 |  | 0.178
CN1CCN(c2nc3nonc3nc2NCc2cccs2)CC1c1ccccc1 (configuration not stated) | 1.08 | 
CCOc1ccccc1CN1CCC(CCC(=O)Nc2ccc(OC)cc2OC)CC1 |  | 0.817
CCCc1ccc2oc(C(=O)N3CCCC(C(=O)c4cccnc4)C3)c(C)c2c1 (configuration not stated) |  | 0.343
C=C(C)CNC(=O)c1oc2ccc(CCC)cc2c1C | 0.431 | 
C=CCS(=O)(=O)N1CCCC(Cc2ccccc2)(C(=O)OCC)C1 (configuration not stated) | 0.875 | 
COCCn1cnc2cc(NC(=O)C3CCCCC3)cc(C(=O)N3CCCC(OC)C3)c21 (configuration not stated) |  | 0.882
CCCS(=O)(=O)N1C[C@H]2OC(=O)N(CCc3cccc(Cl)c3)[C@H]2C1 | 0.9 | 

In a second layout: 2 of the compounds above
SMILES	bacterial growth OD600 (polymyxin B 1 µg/mL)	bacterial growth OD600 (polymyxin B 0.75 µg/mL)
CCOC(=O)N1CCN(C(=O)c2ccc(N3CCC(NCCN4CCCCC4)CC3)cc2)CC1		0.829
CS(=O)(=O)NCc1cccnc1N1CCCCCCC1	0.928	
